Measured values as given in the supplement of paper PMC11006884.
The list shows a part of the results, in another mix than the full data. This is a noisy data set.

Sequences of proteins named here, by UniProt entry; tags and fusion partners are left off. A change or cut given only in a name is not applied to a line headed by its entry.
UniProt Q14839: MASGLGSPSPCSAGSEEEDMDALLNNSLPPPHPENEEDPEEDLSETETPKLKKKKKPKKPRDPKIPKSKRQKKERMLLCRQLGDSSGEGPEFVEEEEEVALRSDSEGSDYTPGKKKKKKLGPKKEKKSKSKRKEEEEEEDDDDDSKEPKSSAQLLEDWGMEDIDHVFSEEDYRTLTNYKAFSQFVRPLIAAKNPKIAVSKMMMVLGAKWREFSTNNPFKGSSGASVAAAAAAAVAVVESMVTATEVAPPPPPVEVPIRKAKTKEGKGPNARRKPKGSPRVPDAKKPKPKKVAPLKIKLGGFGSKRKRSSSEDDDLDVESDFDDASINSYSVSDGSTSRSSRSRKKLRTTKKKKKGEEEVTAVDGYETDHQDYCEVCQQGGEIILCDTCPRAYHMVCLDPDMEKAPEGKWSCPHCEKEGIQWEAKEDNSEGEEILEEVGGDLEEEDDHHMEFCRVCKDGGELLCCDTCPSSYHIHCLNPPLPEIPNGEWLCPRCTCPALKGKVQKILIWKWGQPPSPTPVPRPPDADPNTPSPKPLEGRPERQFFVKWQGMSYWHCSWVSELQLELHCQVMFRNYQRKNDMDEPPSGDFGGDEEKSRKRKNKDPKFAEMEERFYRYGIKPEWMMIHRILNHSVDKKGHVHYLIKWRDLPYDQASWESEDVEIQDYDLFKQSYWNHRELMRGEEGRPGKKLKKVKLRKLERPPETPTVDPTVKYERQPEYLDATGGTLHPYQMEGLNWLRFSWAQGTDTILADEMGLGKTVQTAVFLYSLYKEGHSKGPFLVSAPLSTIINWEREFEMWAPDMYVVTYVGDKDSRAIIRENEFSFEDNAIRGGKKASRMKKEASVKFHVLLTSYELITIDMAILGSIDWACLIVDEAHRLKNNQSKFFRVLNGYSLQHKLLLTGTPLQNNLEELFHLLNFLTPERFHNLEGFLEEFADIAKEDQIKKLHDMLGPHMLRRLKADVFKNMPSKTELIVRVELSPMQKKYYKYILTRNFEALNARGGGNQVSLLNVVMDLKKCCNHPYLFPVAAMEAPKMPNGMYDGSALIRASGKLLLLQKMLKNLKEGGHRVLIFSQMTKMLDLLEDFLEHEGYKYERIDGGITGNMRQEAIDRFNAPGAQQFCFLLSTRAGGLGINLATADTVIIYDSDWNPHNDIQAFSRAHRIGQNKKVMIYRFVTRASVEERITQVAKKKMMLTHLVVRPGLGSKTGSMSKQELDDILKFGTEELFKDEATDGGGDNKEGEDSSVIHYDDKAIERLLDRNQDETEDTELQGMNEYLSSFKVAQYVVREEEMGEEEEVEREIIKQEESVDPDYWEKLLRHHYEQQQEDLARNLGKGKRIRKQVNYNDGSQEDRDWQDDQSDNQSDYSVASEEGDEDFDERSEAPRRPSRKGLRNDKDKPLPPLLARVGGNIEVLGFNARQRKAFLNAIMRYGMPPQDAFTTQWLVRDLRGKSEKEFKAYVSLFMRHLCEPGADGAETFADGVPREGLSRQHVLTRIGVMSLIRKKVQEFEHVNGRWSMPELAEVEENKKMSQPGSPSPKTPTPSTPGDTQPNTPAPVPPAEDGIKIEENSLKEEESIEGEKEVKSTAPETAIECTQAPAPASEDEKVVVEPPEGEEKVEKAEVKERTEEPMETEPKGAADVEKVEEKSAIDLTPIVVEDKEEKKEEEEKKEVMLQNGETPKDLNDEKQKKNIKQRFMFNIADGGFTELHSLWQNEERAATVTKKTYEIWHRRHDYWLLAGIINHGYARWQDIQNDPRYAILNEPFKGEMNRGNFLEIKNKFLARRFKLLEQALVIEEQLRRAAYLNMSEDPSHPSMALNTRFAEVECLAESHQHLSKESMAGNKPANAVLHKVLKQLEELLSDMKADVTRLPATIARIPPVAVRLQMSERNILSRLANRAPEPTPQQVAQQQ
UniProt Q14657: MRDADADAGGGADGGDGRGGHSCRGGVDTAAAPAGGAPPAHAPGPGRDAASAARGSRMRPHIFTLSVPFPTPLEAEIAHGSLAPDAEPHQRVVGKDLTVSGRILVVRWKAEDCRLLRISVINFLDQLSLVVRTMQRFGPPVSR
UniProt Q14315, whole entry, looked up: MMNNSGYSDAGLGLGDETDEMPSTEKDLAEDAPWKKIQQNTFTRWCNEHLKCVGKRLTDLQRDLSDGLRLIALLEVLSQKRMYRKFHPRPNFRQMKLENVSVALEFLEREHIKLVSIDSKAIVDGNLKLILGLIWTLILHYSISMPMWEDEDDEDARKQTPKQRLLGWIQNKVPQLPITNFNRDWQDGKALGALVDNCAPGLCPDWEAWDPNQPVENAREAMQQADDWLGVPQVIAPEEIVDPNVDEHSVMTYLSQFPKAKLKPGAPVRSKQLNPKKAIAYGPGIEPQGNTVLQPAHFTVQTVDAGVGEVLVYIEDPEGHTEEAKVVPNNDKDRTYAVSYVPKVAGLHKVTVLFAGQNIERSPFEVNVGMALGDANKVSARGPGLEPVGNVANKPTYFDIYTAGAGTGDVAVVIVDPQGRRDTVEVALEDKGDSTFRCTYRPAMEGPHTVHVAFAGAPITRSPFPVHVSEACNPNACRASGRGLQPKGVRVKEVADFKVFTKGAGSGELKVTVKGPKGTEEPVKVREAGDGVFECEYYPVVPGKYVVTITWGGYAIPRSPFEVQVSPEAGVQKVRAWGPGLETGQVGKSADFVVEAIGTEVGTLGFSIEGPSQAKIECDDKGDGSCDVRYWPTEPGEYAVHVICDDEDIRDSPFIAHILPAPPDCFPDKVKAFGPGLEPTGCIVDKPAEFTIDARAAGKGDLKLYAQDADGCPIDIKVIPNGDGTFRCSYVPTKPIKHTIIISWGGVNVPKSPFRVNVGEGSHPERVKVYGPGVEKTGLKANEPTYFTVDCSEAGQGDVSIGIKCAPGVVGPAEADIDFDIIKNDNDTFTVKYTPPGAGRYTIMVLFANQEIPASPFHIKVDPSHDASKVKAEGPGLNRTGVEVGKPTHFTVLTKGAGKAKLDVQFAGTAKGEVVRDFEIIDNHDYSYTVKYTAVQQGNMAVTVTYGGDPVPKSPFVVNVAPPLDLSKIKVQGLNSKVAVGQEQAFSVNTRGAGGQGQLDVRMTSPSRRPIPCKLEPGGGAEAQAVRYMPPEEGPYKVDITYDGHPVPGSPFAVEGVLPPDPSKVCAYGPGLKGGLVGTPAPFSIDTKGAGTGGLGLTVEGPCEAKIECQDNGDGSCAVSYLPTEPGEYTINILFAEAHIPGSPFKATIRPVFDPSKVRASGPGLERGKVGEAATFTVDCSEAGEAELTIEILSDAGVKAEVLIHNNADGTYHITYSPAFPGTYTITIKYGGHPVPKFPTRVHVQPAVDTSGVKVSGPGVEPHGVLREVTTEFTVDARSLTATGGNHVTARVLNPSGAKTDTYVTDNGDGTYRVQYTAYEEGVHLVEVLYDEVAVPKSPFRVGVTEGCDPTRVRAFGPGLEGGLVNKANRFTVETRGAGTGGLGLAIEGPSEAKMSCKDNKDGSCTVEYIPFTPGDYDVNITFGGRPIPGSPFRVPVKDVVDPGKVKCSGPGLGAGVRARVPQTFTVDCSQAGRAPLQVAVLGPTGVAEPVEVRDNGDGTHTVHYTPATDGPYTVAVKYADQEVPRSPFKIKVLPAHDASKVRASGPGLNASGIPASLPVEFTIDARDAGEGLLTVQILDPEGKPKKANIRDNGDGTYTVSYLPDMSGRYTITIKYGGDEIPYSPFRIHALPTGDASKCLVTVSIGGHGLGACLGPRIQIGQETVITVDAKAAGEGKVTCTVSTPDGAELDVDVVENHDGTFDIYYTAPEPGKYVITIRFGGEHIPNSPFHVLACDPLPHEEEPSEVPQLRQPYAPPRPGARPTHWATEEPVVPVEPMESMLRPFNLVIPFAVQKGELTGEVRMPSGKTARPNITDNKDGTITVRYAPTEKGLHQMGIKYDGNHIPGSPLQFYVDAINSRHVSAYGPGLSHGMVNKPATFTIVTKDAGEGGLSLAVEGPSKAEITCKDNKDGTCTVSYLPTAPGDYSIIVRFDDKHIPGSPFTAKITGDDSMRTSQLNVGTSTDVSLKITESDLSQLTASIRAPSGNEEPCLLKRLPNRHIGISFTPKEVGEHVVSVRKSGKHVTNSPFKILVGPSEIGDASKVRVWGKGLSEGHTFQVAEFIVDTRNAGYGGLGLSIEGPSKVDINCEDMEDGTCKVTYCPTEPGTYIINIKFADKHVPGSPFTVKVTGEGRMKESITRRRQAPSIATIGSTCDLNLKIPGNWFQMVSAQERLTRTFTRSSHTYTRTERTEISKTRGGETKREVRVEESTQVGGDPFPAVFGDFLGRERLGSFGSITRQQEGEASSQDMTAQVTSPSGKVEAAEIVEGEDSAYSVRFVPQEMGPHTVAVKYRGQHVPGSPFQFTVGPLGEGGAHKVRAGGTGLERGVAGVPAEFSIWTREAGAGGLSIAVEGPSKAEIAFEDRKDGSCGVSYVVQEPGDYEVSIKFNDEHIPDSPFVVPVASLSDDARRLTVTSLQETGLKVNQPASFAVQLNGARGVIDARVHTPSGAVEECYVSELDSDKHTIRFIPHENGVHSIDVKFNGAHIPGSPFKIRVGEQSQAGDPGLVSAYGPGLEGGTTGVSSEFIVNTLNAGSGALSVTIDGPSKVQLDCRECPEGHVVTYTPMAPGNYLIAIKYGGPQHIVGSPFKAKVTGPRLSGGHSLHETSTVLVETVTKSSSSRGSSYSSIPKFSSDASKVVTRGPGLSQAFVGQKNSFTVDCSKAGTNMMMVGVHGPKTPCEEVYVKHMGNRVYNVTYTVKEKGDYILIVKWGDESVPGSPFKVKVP
UniProt Q14C86: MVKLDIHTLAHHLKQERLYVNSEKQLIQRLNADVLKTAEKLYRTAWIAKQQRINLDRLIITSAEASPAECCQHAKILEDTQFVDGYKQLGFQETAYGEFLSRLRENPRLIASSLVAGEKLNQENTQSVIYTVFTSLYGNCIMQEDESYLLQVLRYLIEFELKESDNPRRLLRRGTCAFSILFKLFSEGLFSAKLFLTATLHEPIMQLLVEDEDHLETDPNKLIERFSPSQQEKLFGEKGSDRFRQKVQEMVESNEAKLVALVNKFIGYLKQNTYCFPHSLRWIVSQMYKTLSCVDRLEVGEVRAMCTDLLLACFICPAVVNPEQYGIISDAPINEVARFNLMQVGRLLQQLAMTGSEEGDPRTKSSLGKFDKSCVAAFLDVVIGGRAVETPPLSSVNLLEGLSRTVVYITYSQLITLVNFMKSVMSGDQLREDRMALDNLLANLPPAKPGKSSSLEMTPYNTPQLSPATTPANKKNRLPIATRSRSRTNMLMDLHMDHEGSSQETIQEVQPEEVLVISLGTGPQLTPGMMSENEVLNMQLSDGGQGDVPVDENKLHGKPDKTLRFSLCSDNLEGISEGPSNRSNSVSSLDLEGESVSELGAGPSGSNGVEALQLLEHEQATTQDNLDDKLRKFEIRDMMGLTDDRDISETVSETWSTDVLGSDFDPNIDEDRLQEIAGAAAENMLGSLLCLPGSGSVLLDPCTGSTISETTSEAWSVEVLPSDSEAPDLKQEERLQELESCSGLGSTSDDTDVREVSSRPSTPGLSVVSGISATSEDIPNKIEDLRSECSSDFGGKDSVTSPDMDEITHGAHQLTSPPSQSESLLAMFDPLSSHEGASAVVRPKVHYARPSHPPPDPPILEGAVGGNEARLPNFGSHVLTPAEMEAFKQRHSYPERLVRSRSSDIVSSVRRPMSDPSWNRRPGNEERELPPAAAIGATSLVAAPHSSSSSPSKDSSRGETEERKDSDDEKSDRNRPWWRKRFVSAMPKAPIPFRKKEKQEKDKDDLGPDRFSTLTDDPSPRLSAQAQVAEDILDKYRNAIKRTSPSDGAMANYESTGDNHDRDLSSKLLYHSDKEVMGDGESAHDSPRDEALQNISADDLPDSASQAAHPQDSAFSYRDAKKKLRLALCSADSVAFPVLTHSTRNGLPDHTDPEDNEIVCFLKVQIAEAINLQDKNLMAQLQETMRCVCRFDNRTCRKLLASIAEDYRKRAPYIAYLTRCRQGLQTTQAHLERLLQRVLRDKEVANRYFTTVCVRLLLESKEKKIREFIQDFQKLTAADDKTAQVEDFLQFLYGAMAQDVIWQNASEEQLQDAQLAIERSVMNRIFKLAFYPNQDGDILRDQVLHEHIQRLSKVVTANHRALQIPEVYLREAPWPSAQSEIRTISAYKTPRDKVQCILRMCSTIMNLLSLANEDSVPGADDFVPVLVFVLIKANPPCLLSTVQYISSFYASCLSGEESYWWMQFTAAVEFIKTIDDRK
UniProt Q13642: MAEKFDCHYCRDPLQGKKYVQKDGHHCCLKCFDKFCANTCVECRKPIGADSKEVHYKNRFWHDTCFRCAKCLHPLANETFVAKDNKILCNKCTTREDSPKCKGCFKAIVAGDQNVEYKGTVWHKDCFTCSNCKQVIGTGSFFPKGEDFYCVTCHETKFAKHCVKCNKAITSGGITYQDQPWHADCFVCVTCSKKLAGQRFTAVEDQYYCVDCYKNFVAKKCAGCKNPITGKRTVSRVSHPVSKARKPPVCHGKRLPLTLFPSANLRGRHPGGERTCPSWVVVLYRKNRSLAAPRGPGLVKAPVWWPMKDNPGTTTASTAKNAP

Compound: COC(=O)/C=C/c1ccccc1 [methyl cinnamate]
Test: log2 ratio of iodoacetamide-alkyne labeling of the cysteine site, DMSO over compound (competition); higher = stronger covalent engagement of the cysteine by the compound, active = 1 or more
Details: 500 µM; treatment time 1 h; system: HEK293T cell lysate
How it was run: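 HEK293T lysate (2 mg/mL) was treated with DMSO or electrophile (500 µM, 1 h, ambient temperature), then iodoacetamide alkyne (1 h), clicked to sCIP-TMT reagents, pooled, trypsin-digested overnight at 37 °C, streptavidin-enriched and acid-eluted. Peptides were run on Orbitrap Eclipse LC-MS/MS with FAIMS and quantified in FragPipe. The log2 competition ratio per cysteine is mean control-channel over mean compound-channel reporter intensity. Duplicate channels and three replicates were used, and cysteines quantified in only one replicate were excluded.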

log2 ratio of iodoacetamide-alkyne labeling, inactive:
MDC1 C1742 (UniProt Q14676) -0.033
USP10 C456 (UniProt Q14694) 0.129
DYNC1H1 C4216 (UniProt Q14204) 0.182
DYNC1H1 C4644 (UniProt Q14204) 0.0658
SART3 C472 (UniProt Q15020) -0.0135
FRG1 C159 (UniProt Q14331) -0.000801
MDC1 C128 (UniProt Q14676) 0.00217
SAFB2 C449 (UniProt Q14151) 0.309
FHL3 C212 (UniProt Q13643) -0.102
PIN1 C113 (UniProt Q13526) 0.238
UniProt Q13885_C129 0.173
FHL3 C153 (UniProt Q13643) 0.0596
CKAP5 C1795 (UniProt Q14008) -0.102
CHD4 C1468 (UniProt Q14839) 0.195
GNL2 C336 (UniProt Q13823) 0.428
DYNC1H1 C1999 (UniProt Q14204) 0.196
UniProt Q14444_C226 0.101
ZMYM3 C1106 (UniProt Q14202) -0.0319
GANAB C423 (UniProt Q14697) 0.0177
LAGE3 C23 (UniProt Q14657) 0.0381
EIF3A C478 (UniProt Q14152) 0.288
WRN C171 (UniProt Q14191) 0.033
PDCD11 C1218 (UniProt Q14690) 0.258
UniProt Q14141_C42 -0.241
FLNC C1448 (UniProt Q14315) 0.318
UBE4A C79 (UniProt Q14139) 0.255
CHD4 C1594 (UniProt Q14839) -0.00684
GAPVD1 C1160 (UniProt Q14C86) -0.113
UniProt Q13620_C102 0.0992
DYNC1H1 C3033 (UniProt Q14204) 0.104
FHL1 C92 (UniProt Q13642) 0.188
FHL1 C212 (UniProt Q13642) -0.0748
CAMK1 C354 (UniProt Q14012) -0.0181
FLNC C1735 (UniProt Q14315) -0.0456
GOLGB1 C1285 (UniProt Q14789) -0.247
DYNC1H1 C2712 (UniProt Q14204) -0.14
NCAPH C296 (UniProt Q15003) 0.109

Copied from the entries so far for reference:
log2 ratio of iodoacetamide-alkyne labeling, inactive:
GNL2 C336 (UniProt Q13823) 0.428
DYNC1H1 C1999 (UniProt Q14204) 0.196
UniProt Q14444_C226 0.101
ZMYM3 C1106 (UniProt Q14202) -0.0319
GANAB C423 (UniProt Q14697) 0.0177
LAGE3 C23 (UniProt Q14657) 0.0381
EIF3A C478 (UniProt Q14152) 0.288
WRN C171 (UniProt Q14191) 0.033
PDCD11 C1218 (UniProt Q14690) 0.258
UniProt Q14141_C42 -0.241
FLNC C1448 (UniProt Q14315) 0.318
